Residue numbers refer to the chain shown, from its start. No constants are given. Whether binding was seen depends on the method and setting. Some entries that bind do so weakly or less than the wild type.
B1: YW505.94a.28 Fab (Fab, V domains shown)
VH: EVQLVESGGGLVQPGGSLRLSCAASGFSISGYYIHWVRQAPGKGLEWVGWIDPYGGDTNYADSVKGRFTISADTSKNTAYLQMNSLRAEDTAVYYCARGTFLTSWGHYFDYWGQGT
VL: DIQMTQSPSSLSASVGDRVTITCRASQSINTYLAWYQQKPGKAPKLLIYSASFLYSGVPSRFSGSGSGTDFTLTISSLQPEDFATYYCQQSDDTPPTFGQGTKVEIKR
B2: YW505.94a.54 Fab (Fab, V domains shown)
VH: B1 VH
VL: B1 VL with S28V, I29V, N30G, T31N, T94H
B3: YW505.94a Fab (Fab, V domains shown)
VH: B1 VH
VL: B1 VL with S28D, I29V, N30S, Y32A, L33V, D92Y, D93T

Amino acid sequences for entries named in this document (tags omitted). A change or cut given only in a name is not applied to a line headed by its entry.
UniProt Q92743: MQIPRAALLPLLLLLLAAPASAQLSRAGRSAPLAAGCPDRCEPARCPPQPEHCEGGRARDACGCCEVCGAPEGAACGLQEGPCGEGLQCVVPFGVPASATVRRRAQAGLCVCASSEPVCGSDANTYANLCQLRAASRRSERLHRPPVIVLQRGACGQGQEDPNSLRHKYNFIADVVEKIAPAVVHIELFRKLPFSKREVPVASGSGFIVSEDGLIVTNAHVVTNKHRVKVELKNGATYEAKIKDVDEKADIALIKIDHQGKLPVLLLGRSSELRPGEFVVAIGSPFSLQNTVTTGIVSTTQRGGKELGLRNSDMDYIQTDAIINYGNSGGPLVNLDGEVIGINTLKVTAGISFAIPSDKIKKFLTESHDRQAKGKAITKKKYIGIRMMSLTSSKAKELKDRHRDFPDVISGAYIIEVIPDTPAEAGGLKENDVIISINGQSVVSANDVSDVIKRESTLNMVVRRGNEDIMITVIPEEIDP
UniProt Q9R118: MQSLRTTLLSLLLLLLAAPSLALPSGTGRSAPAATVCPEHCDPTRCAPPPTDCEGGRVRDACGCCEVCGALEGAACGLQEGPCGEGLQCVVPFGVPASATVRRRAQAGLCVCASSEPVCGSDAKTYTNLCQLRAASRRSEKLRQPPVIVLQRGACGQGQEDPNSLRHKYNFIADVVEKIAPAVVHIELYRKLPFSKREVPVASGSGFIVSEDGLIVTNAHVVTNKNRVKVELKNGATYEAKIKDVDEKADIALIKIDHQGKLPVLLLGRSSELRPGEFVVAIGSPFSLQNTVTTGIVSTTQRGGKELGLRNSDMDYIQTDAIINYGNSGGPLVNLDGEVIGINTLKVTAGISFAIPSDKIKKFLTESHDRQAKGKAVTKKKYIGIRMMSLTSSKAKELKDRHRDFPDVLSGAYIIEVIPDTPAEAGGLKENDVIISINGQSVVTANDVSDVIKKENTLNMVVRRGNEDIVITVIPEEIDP

Legend:
[1] = target: Full length human HtrA1 (HuHtrA1) (Q23-P480), N-terminal His6 tag (human) (UniProt Q92743); assay: phage competition ELISA: Fab-phage pre-incubated with serially diluted soluble HuHtrA1 (x axis), unbound phage captured on HuHtrA1-coated plate
[2] = target: Full length murine HtrA1 (MuHtrA1) (P24-P480), N-terminal His6 tag (murine) (UniProt Q9R118); assay: phage competition ELISA: Fab-phage pre-incubated with serially diluted soluble MuHtrA1 (x axis), unbound phage captured on HuHtrA1-coated plate

| Binder | binding [1] | binding [2] |
| --- | --- | --- |
| B1 | binds | binds |
| B2 | binds | binds |
| B3 | binds | binds |

Source: US20190016826A1
